Measured values published in the supplement of paper PMC8728848.
This is one part of the list.

Columns and labels:
Assay in all cases: glycan array binding signal (z-score within array); higher = stronger binding
Details in all cases: glycan notation: IUPAC condensed, linker removed
GlcNAc(b1-3)Gal(b1-4)Glc = target: GlcNAc(b1-3)Gal(b1-4)Glc
Procedure, shortened: (§1)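 Arrays were curated from the Consortium for Functional Glycomics database, 3228 in total, and kept only where the protein sequence was available. Binding is expressed as a within-array Z-score. This score was averaged across arrays of the same protein sequence at different concentrations or buffers and across linkers, and negative values can be read as non-binding.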

[1] = target: GlcNAc(b1-3)Gal(b1-4)GlcNAc
Procedure, shortened: as §1

[2] = target: GlcNAc(b1-3)Gal(b1-4)GlcNAc(b1-2)Man(a1-3)[GlcNAc(b1-3)Gal(b1-4)GlcNAc(b1-2)Man(a1-6)]Man(b1-4)GlcNAc(b1-4)GlcNAc
Procedure, shortened: as §1

[3] = target: GlcNAc(b1-3)Gal(b1-4)GlcNAc(b1-2)Man(a1-3)[GlcNAc(b1-3)Gal(b1-4)GlcNAc(b1-2)Man(a1-6)]Man(b1-4)GlcNAc(b1-4)[Fuc(a1-6)]GlcNAc
Procedure, shortened: as §1

[4] = target: GlcNAc(b1-3)Gal(b1-4)GlcNAc(b1-2)[GlcNAc(b1-3)Gal(b1-4)GlcNAc(b1-6)]Man(a1-6)[GlcNAc(b1-3)Gal(b1-4)GlcNAc(b1-2)Man(a1-3)]Man(b1-4)GlcNAc(b1-4)GlcNAc
Procedure, shortened: as §1

[5] = target: GlcNAc(b1-3)Gal(b1-4)GlcNAc(b1-3)Gal(b1-4)GlcNAc
Procedure, shortened: as §1

[6] = target: GlcNAc(b1-3)Gal(b1-4)GlcNAc(b1-3)Gal(b1-4)GlcNAc(b1-2)Man(a1-3)[GlcNAc(b1-3)Gal(b1-4)GlcNAc(b1-3)Gal(b1-4)GlcNAc(b1-2)Man(a1-6)]Man(b1-4)GlcNAc(b1-4)GlcNAc
Procedure, shortened: as §1

[7] = target: GlcNAc(b1-3)Gal(b1-4)GlcNAc(b1-3)Gal(b1-4)GlcNAc(b1-2)Man(a1-3)[GlcNAc(b1-3)Gal(b1-4)GlcNAc(b1-3)Gal(b1-4)GlcNAc(b1-2)Man(a1-6)]Man(b1-4)GlcNAc(b1-4)[Fuc(a1-6)]GlcNAc
Procedure, shortened: as §1

[8] = target: GlcNAc(b1-3)Gal(b1-4)GlcNAc(b1-3)Gal(b1-4)GlcNAc(b1-2)[GlcNAc(b1-3)Gal(b1-4)GlcNAc(b1-3)Gal(b1-4)GlcNAc(b1-6)]Man(a1-6)[GlcNAc(b1-3)Gal(b1-4)GlcNAc(b1-3)Gal(b1-4)GlcNAc(b1-2)Man(a1-3)]Man(b1-4)GlcNAc(b1-4)[Fuc(a1-6)]GlcNAc
Procedure, shortened: as §1

[9] = target: GlcNAc(b1-3)Gal(b1-4)GlcNAc(b1-3)Gal(b1-4)GlcNAc(b1-3)Gal(b1-4)GlcNAc(b1-2)Man(a1-3)[GlcNAc(b1-3)Gal(b1-4)GlcNAc(b1-3)Gal(b1-4)GlcNAc(b1-3)Gal(b1-4)GlcNAc(b1-2)Man(a1-6)]Man(b1-4)GlcNAc(b1-4)GlcNAc
Procedure, shortened: as §1

[10] = target: GlcNAc(b1-3)Gal(b1-4)GlcNAc(b1-3)Gal(b1-4)GlcNAc(b1-3)Gal(b1-4)GlcNAc(b1-2)Man(a1-3)[GlcNAc(b1-3)Gal(b1-4)GlcNAc(b1-3)Gal(b1-4)GlcNAc(b1-3)Gal(b1-4)GlcNAc(b1-2)Man(a1-6)]Man(b1-4)GlcNAc(b1-4)[Fuc(a1-6)]GlcNAc
Procedure, shortened: as §1

[11] = target: GlcNAc(b1-3)Gal(b1-4)GlcNAc(b1-3)Gal(b1-4)GlcNAc(b1-3)Gal(b1-4)GlcNAc(b1-2)[GlcNAc(b1-3)Gal(b1-4)GlcNAc(b1-3)Gal(b1-4)GlcNAc(b1-3)Gal(b1-4)GlcNAc(b1-6)]Man(a1-6)[GlcNAc(b1-3)Gal(b1-4)GlcNAc(b1-3)Gal(b1-4)GlcNAc(b1-3)Gal(b1-4)GlcNAc(b1-2)Man(a1-3)]Man(b1-4)GlcNAc(b1-4)[Fuc(a1-6)]GlcNAc
Procedure, shortened: as §1

[12] = target: GlcNAc(b1-3)Gal(b1-4)GlcNAc(b1-3)Gal(b1-4)GlcNAc(b1-3)Gal(b1-4)GlcNAc(b1-3)Gal(b1-4)GlcNAc(b1-2)Man(a1-3)[GlcNAc(b1-3)Gal(b1-4)GlcNAc(b1-3)Gal(b1-4)GlcNAc(b1-3)Gal(b1-4)GlcNAc(b1-3)Gal(b1-4)GlcNAc(b1-2)Man(a1-6)]Man(b1-4)GlcNAc(b1-4)GlcNAc
Procedure, shortened: as §1

[13] = target: GlcNAc(b1-3)Gal(b1-4)GlcNAc(b1-3)Gal(b1-4)GlcNAc(b1-3)Gal(b1-4)GlcNAc(b1-3)Gal(b1-4)GlcNAc(b1-2)Man(a1-3)[GlcNAc(b1-3)Gal(b1-4)GlcNAc(b1-3)Gal(b1-4)GlcNAc(b1-3)Gal(b1-4)GlcNAc(b1-3)Gal(b1-4)GlcNAc(b1-2)Man(a1-6)]Man(b1-4)GlcNAc(b1-4)[Fuc(a1-6)]GlcNAc
Procedure, shortened: as §1

[14] = target: GlcNAc(b1-3)Gal(b1-4)GlcNAc(b1-3)Gal(b1-4)GlcNAc(b1-3)Gal(b1-4)GlcNAc(b1-3)Gal(b1-4)GlcNAc(b1-2)[GlcNAc(b1-3)Gal(b1-4)GlcNAc(b1-3)Gal(b1-4)GlcNAc(b1-3)Gal(b1-4)GlcNAc(b1-3)Gal(b1-4)GlcNAc(b1-6)]Man(a1-6)[GlcNAc(b1-3)Gal(b1-4)GlcNAc(b1-3)Gal(b1-4)GlcNAc(b1-3)Gal(b1-4)GlcNAc(b1-3)Gal(b1-4)GlcNAc(b1-2)Man(a1-3)]Man(b1-4)GlcNAc(b1-4)[Fuc(a1-6)]GlcNAc
Procedure, shortened: as §1

[15] = target: GlcNAc(b1-3)Gal(b1-4)GlcNAc(b1-3)Gal(b1-4)GlcNAc(b1-3)GalNAc
Procedure, shortened: as §1

[16] = target: GlcNAc(b1-3)Gal(b1-4)GlcNAc(b1-3)GalNAc
Procedure, shortened: as §1

[17] = target: GlcNAc(b1-3)Gal(b1-4)GlcNAc(b1-3)[GlcNAc(b1-3)Gal(b1-4)GlcNAc(b1-3)]GalNAc
Procedure, shortened: as §1

[18] = target: GlcNAc(b1-3)Gal(b1-4)GlcNAc(b1-6)[Gal(b1-3)]GalNAc
Procedure, shortened: as §1

[19] = target: GlcNAc(b1-3)Gal(b1-4)GlcNAc(b1-6)[GlcNAc(b1-3)Gal(b1-3)]GalNAc
Procedure, shortened: as §1

[20] = target: GlcNAc(b1-3)Gal(b1-4)GlcNAc(b1-6)[GlcNAc(b1-3)]Gal(b1-4)GlcNAc
Procedure, shortened: as §1

GlcNAc(b1-3)GalNAc = target: GlcNAc(b1-3)GalNAc
Procedure, shortened: as §1

GlcNAc(b1-3)Man = target: GlcNAc(b1-3)Man
Procedure, shortened: as §1

[21] = target: GlcNAc(b1-3)[GlcNAc(b1-4)][GlcNAc(b1-6)]GlcNAc
Procedure, shortened: as §1

[22] = target: GlcNAc(b1-3)[GlcNAc(b1-6)]Gal(b1-4)GlcNAc
Procedure, shortened: as §1

[23] = target: GlcNAc(b1-3)[GlcNAc(b1-6)]GalNAc
Procedure, shortened: as §1

[24] = target: GlcNAc(b1-4)Gal(b1-4)GlcNAc
Procedure, shortened: as §1

GlcNAc(b1-4)GlcNAc = target: GlcNAc(b1-4)GlcNAc
Procedure, shortened: as §1

[25] = target: GlcNAc(b1-4)GlcNAc(b1-4)GlcNAc
Procedure, shortened: as §1

[26] = target: GlcNAc(b1-4)GlcNAc(b1-4)GlcNAc(b1-4)GlcNAc(b1-4)GlcNAc
Procedure, shortened: as §1

[27] = target: GlcNAc(b1-4)GlcNAc(b1-4)GlcNAc(b1-4)GlcNAc(b1-4)GlcNAc(b1-4)GlcNAc
Procedure, shortened: as §1

[28] = target: GlcNAc(b1-4)[GlcNAc(b1-6)]GalNAc
Procedure, shortened: as §1

[29] = target: GlcNAc(b1-6)Gal(b1-4)GlcNAc
Procedure, shortened: as §1

GlcNAc(b1-6)GalNAc = target: GlcNAc(b1-6)GalNAc
Procedure, shortened: as §1

[30] = target: GlcNAc6S(b1-3)Gal(b1-4)GlcNAc
Procedure, shortened: as §1

Kdn(a2-3)Gal(b1-3)GalNAc = target: Kdn(a2-3)Gal(b1-3)GalNAc
Procedure, shortened: as §1

Kdn(a2-3)Gal(b1-3)GlcNAc = target: Kdn(a2-3)Gal(b1-3)GlcNAc
Procedure, shortened: as §1

Kdn(a2-3)Gal(b1-4)Glc = target: Kdn(a2-3)Gal(b1-4)Glc
Procedure, shortened: as §1

Kdn(a2-3)Gal(b1-4)GlcNAc = target: Kdn(a2-3)Gal(b1-4)GlcNAc
Procedure, shortened: as §1

[31] = target: Kdn(a2-3)Gal(b1-4)[Fuc(a1-3)]GlcNAc
Procedure, shortened: as §1

Kdn(a2-6)Gal(b1-4)GlcNAc = target: Kdn(a2-6)Gal(b1-4)GlcNAc
Procedure, shortened: as §1

[32] = target: Man(a1-2)Man(a1-2)Man(a1-3)Man
Procedure, shortened: as §1

[33] = target: Man(a1-2)Man(a1-2)Man(a1-6)[Man(a1-3)]Man
Procedure, shortened: as §1

Man(a1-2)Man(a1-3)Man = target: Man(a1-2)Man(a1-3)Man
Procedure, shortened: as §1

[34] = target: Man(a1-2)Man(a1-3)[Man(a1-2)Man(a1-6)]Man
Procedure, shortened: as §1

B1: AntigenI/IIC123 (Streptococcus mutans), C9E3B4 (protein)
chain: MASMTGGQQMGRIHFHYFKLAVQPQVNKEIRNNNDINIDRTLVAKQSVVKFQLKTADLPAGRDETTSFVLVDPLPSGYQFNPEATKAASPGFDVTYDNATNTVTFKATAATLATFNADLTKSVATIYPTVVGQVLNDGATYKNNFTLTVNDAYGIKSNVVRVTTPGKPNDPDNPNNNYIKPTKVNKNENGVVIDGKTVLAGSTNYYELTWDLDQYKNDRSSADTIQKGFYYVDDYPEEALELRQDLVKITDANGNEVTGVSVDNYTNLEAAPQEIRDVLSKAGIRPKGAFQIFRADNPREFYDTYVKTGIDLKIVSPMVVKKQMGQTGGSYENQAYQIDFGNGYASNIIINNVPKINPKKDVTLTLDPADTNNVDGQTIPLNTVFNYRLIGGIIPADHSEELFEYNFYDDYDQTGDHYTGQYKVFAKVDITFKDGSIIKSGAELTQYTTAEVDTAKGAITIKFKEAFLRSVSIDSAFQAESYIQMKRIAVGTFENTYINTVNGVTYSSLEHHHHHH
glycan array binding signal (z-score) (GlcNAc(b1-3)Gal(b1-4)Glc): -0.793 | glycan array binding signal (z-score) [1]: -0.299 | glycan array binding signal (z-score) [2]: 0.67 | glycan array binding signal (z-score) [3]: 1.16 | glycan array binding signal (z-score) [4]: 0.352 | glycan array binding signal (z-score) [5]: -0.932 | glycan array binding signal (z-score) [6]: 0.502 | glycan array binding signal (z-score) [7]: 1.92 | glycan array binding signal (z-score) [8]: 1.34 | glycan array binding signal (z-score) [9]: -0.616 | glycan array binding signal (z-score) [10]: 0.852 | glycan array binding signal (z-score) [11]: 0.135 | glycan array binding signal (z-score) [12]: 1.73 | glycan array binding signal (z-score) [13]: 1.61 | glycan array binding signal (z-score) [14]: -0.444 | glycan array binding signal (z-score) [15]: -1.31 | glycan array binding signal (z-score) [16]: -0.251 | glycan array binding signal (z-score) [17]: -1.2 | glycan array binding signal (z-score) [18]: 0.421 | glycan array binding signal (z-score) [19]: -0.317 | glycan array binding signal (z-score) [20]: -0.94 | glycan array binding signal (z-score) (GlcNAc(b1-3)GalNAc): -0.207 | glycan array binding signal (z-score) (GlcNAc(b1-3)Man): -0.319 | glycan array binding signal (z-score) [21]: -0.796 | glycan array binding signal (z-score) [22]: -1.45 | glycan array binding signal (z-score) [23]: -0.409 | glycan array binding signal (z-score) [24]: -0.801 | glycan array binding signal (z-score) (GlcNAc(b1-4)GlcNAc): 1.48 | glycan array binding signal (z-score) [25]: -1.06 | glycan array binding signal (z-score) [26]: -0.525 | glycan array binding signal (z-score) [27]: -0.362 | glycan array binding signal (z-score) [28]: -0.907 | glycan array binding signal (z-score) [29]: 0.455 | glycan array binding signal (z-score) (GlcNAc(b1-6)GalNAc): 0.319 | glycan array binding signal (z-score) [30]: -0.422 | glycan array binding signal (z-score) (Kdn(a2-3)Gal(b1-3)GalNAc): 1.71 | glycan array binding signal (z-score) (Kdn(a2-3)Gal(b1-3)GlcNAc): 0.577 | glycan array binding signal (z-score) (Kdn(a2-3)Gal(b1-4)Glc): 0.395 | glycan array binding signal (z-score) (Kdn(a2-3)Gal(b1-4)GlcNAc): -0.458 | glycan array binding signal (z-score) [31]: 0.505 | glycan array binding signal (z-score) (Kdn(a2-6)Gal(b1-4)GlcNAc): 0.238 | glycan array binding signal (z-score) [32]: -0.117 | glycan array binding signal (z-score) [33]: 0.586 | glycan array binding signal (z-score) (Man(a1-2)Man(a1-3)Man): -0.486 | glycan array binding signal (z-score) [34]: -0.933
